No constants are given. Whether binding was seen depends on the method and setting. Binding seen in cells or lysates may run through a third protein. A result given as binding can be weak or reduced; the word gives no strength. Sequences can lack the tags named with a protein.
Molecular target: Kek6-Flag (Drosophila)
Experiment: co-IP; co-transfected S2 cells, 48 h after transfection, lysed in NP-40 buffer (50 mM Tris-HCl pH 8.0, 150 mM NaCl, 1% Igepal-630); IP with mouse anti-V5 or anti-HA and protein-A/G magnetic beads, or with anti-Flag magnetic beads; Western blot

- binding: binds
B1: VAP33A-HA (protein, UniProt Q9W4N8 1-269)
chain: MSKSLFDLPLTIEPEHELRFVGPFTRPVVTIMTLRNNSALPLVFKIKTTAPKRYCVRPNIGKIIPFRSTQVEICLQPFVYDQQEKNKHKFMVQSVLAPMDADLSDLNKLWKDLEPEQLMDAKLKCVFEMPTAEANAENTSGGGAVGGGTGAAGGGSAGANTSSASAEALESKPKLSSEDKFKPSNLLETSESLDLLSGEIKALRECNIELRRENLHLKDQITRFRSSPAVKQVNEPYAPVLAEKQIPVFYIAVAIAAAIVSLLLGKFFL

From article PMC5591008
